This passage reports binding results from paper doi:10.1101/411173.

In this test the target is T1, His14-Sec61S353C (S. cerevisiae) (UniProt P32915).
T1 sequence: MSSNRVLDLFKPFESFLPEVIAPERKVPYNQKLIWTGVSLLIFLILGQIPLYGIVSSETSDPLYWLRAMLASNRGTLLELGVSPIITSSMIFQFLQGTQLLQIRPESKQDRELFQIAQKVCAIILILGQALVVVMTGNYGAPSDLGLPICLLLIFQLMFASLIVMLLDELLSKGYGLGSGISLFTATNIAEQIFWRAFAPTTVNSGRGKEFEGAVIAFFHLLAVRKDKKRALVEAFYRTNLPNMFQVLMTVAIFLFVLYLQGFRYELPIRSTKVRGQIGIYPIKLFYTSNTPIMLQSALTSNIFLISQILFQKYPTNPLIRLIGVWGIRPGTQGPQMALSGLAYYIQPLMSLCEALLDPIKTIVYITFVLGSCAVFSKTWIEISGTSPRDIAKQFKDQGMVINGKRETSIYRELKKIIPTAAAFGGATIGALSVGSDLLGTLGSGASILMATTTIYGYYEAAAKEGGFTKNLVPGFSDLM
Put plainly: cross-linking + affinity purification with mass spectrometry.

Results are given in words; binding and its absence hold for the method and conditions named. In cells and extracts the contact can be indirect. A yes stands for co-enrichment or nearness to the bait. Other partners may have been found. Where a sequence is shown, tags or fusion partners need not be part of it.

B1: Mpd1 (protein, UniProt Q12404 22-318)
chain: QNFYDSDPHISELTPKSFDKAIHNTNYTSLVEFYAPWCGHCKKLSSTFRKAAKRLDGVVQVAAVNCDLNKNKALCAKYDVNGFPTLMVFRPPKIDLSKPIDNAKKSFSAHANEVYSGARTLAPIVDFSLSRIRSYVKKFVRIDTLGSLLRKSPKLSVVLFSKQDKISPVYKSIALDWLGKFDFYSISNKKLKQLTDMNPTYEKTPEIFKYLQKVIPEQRQSDKSKLVVFDADKDKFWEYEGNSINKNDISKFLRDTFSITPNEGPFSRRSEYIAYLKTGKKPIKKNHSSSGNKHDEL
On to B1, for which the binding entry is listed as “binds”.
